Test results as given in publication PMC3509002.

Protein sequences, listed by entry. Tags and fused reporters are not part of them. Residues count along the entry.
UniProt P27898, 9-116: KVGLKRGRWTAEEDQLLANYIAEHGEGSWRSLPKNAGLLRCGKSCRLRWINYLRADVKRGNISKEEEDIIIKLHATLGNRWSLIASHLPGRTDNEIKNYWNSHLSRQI

Target: P1-MYB (NHis6-P1MYB) (Zea mays) (UniProt P27898)
Test: EMSA
Settings: EMSA: 10 ng P1MYB with equimolar probe (~10^5 CPM), 30 min; protein stored in 10 mM Tris pH 7.5; recombinant protein; protein details: N-terminal His6; label: 32P 5' end on one primer strand; probe letters rebuilt from the primers and the genome

Sequence | binding result
ACCGTAAGGCCAACTCCAACAATGCCCCCCACTCCCCTACCCCATGTAAGGTGTGGTTTGGAGTAAAAACTCTCTCCAACAATCCCACAACCCACTC (double strand) [Zmf3'h1 promoter probe Pr1-1] | binds
CCACTTGCGTGCTTCATCTAACAATCTAGCTGCTCCTCCTACCTACCCGCGATCTGGAATTTCGTACCTATTTATATTTTTCTTCGCGGGC (double strand) [Zmf3'h1 promoter probe Pr1-2] | binds

Construct, isoform or probe ends are uncertain for at least one entry.
